The other results are listed elsewhere or left out.
Target: T1, OsSMF1 (Oryza sativa, UniProt Q6ZLB0 1-436)
T1 sequence: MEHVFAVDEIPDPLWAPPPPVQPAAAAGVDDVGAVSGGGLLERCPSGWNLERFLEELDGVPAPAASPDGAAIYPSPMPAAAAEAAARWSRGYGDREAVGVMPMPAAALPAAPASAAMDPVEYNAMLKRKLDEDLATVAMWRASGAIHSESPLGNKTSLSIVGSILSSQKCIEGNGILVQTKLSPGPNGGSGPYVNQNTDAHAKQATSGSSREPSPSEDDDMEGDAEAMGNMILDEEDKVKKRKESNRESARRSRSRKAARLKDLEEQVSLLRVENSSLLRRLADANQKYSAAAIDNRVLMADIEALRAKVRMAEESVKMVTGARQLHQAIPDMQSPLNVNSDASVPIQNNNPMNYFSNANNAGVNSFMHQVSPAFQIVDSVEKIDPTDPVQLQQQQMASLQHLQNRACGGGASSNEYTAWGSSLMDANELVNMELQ
Assay: protein-binding microarray (RPBM); PBS, 2% BSA, 51.3 ng/ul salmon testes DNA, 50 uM zinc acetate, 200 nM TF, 25 C, 1 h; high values mean tight binding
Conditions: protein: recombinant; tags: N-terminal polyhistidine and DsRed monomer fusion (pET32a); chain copies: 2; label: CyDye5-dUTP incorporated in the synthesized complementary strand; 3' TTTTT single-stranded linker to array surface; dsDNA, one strand shown
How it was run: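 Binding signal here means per-feature fluorescence intensity in arbitrary units. The values were read on an Axon 4000B scanner after a custom Agilent array, double-stranded by primer extension with Cy5-dUTP, was incubated with 200 nM protein at 25 °C for 1 h in PBS with 2% BSA, salmon testes DNA and 50 µM zinc acetate, then washed. The proteins were transcription factors with an N-terminal polyhistidine tag and DsRed, expressed in E. coli BL21-CodonPlus and purified on Ni–NTA.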

| Sequence | binding signal |
| --- | --- |
| CACCTCGCTGCATCCAGGGCGAGCCGTGTCACCGTCCTCCCGGAGTCACCTAGTGCAG | 5720 fluorescence intensity (a.u.) |
| TATTTTCAATTTTATAGTTGTTTTATCCTACTCAAACTATCGGAGTCACCTAGTGCAG | 19600 fluorescence intensity (a.u.) |
| GTTTCCTGATGTTGTGCCAGTGCAGCACGTTGAGGAGGCGCGGAGTCACCTAGTGCAG | 3330 fluorescence intensity (a.u.) |
| GGATTCGGTCATTTGAGAATGACATATGGGGCCCACGTGGCGGAGTCACCTAGTGCAG | 5670 fluorescence intensity (a.u.) |
| GCAAATACTGTGACTCAGAAGGTGTGGCGATACTAGATTTCGGAGTCACCTAGTGCAG | 8300 fluorescence intensity (a.u.) |
| ACTTCCCATTGTTGTTGCCATCGCCGCCGCCGCCGCCGCCCGGAGTCACCTAGTGCAG | 3420 fluorescence intensity (a.u.) |
| GAGAACCCACCCACGTGATCTTTTGTTGCTCAACTTAAGTCGGAGTCACCTAGTGCAG | 27400 fluorescence intensity (a.u.) |
| AATTTCCCACATCCTCCAATCAAACTGAGATTATAATGCTCGGAGTCACCTAGTGCAG | 3300 fluorescence intensity (a.u.) |
| ATTTGGCTCCTGATGACTAATCCGCTTGAAACACCTCGCTCGGAGTCACCTAGTGCAG | 5200 fluorescence intensity (a.u.) |
| TACGATCTAACGTCAGATATTATCTTAACATCCCTTGTTCCGGAGTCACCTAGTGCAG | 5880 fluorescence intensity (a.u.) |
| TAATTTGTGGTGTCTGTGTGACTATTTACGTTTCTGGTTACGGAGTCACCTAGTGCAG | 3180 fluorescence intensity (a.u.) |
| AGGAGAGCAGCATGTCCAACCTGACCTCCTCCGCCTCCACCGGAGTCACCTAGTGCAG | 13800 fluorescence intensity (a.u.) |
| CTATAGCTAGCTGCCGTTGCGTGCCAGCTACTACAACACCCGGAGTCACCTAGTGCAG | 3380 fluorescence intensity (a.u.) |
| CGGGAGCGTGAGCATCACGGCCACCGCCGCCTCCGCCGCCCGGAGTCACCTAGTGCAG | 4730 fluorescence intensity (a.u.) |
| GCTTACCATTTCTTGGTTTCAATTGGGTGATGCTGTGTTGCGGAGTCACCTAGTGCAG | 3370 fluorescence intensity (a.u.) |
| CGCCGCGTAGCCTCGCCCACGGCGATGACGACGGCGGCGGCGGAGTCACCTAGTGCAG | 3660 fluorescence intensity (a.u.) |
| GGTTGAGTATTTGTCATGGTTTGTGGATGCATGGATGGTTCGGAGTCACCTAGTGCAG | 4180 fluorescence intensity (a.u.) |
| AGTCGCCACATCAGCTAAAACTATGATGAATATTGTCTTGCGGAGTCACCTAGTGCAG | 14200 fluorescence intensity (a.u.) |
| AGTTGGATATCAATTGGCCGATGTGTGGGTCAAGCAACAACGGAGTCACCTAGTGCAG | 17600 fluorescence intensity (a.u.) |
| TGTCAGGGTGTCCACGTCAGCAGTTCTCTCTTTCCCCACTCGGAGTCACCTAGTGCAG | 31700 fluorescence intensity (a.u.) |
| GCCATCTCAGTGCCGGTGAGCTGGGGACGTGGTAATTTCCCGGAGTCACCTAGTGCAG | 3760 fluorescence intensity (a.u.) |

Single entries from the results shown.
TACGATCTAACGTCAGATATTATCTTAACATCCCTTGTTCCGGAGTCACCTAGTGCAG | binding signal: 5880 fluorescence intensity (a.u.)
CGGGAGCGTGAGCATCACGGCCACCGCCGCCTCCGCCGCCCGGAGTCACCTAGTGCAG | binding signal: 4730 fluorescence intensity (a.u.)
CTATAGCTAGCTGCCGTTGCGTGCCAGCTACTACAACACCCGGAGTCACCTAGTGCAG | binding signal: 3380 fluorescence intensity (a.u.)

(list continues)

| Sequence | binding signal |
| --- | --- |
| ATGCCATCAGCGTTAGTCAACCGTTAGTCATACACCATTACGGAGTCACCTAGTGCAG | 3490 fluorescence intensity (a.u.) |
| GACCCTGCATACATCGCATGTATCCCAATCAGCGGAGACACGGAGTCACCTAGTGCAG | 3350 fluorescence intensity (a.u.) |
| GTAGGCGACGCCGATCTCCCTCTACGTTGCGGCATTGGCTCGGAGTCACCTAGTGCAG | 3560 fluorescence intensity (a.u.) |
| GATGCATGCTCTGAGTAGGCCACGTACCAGAACATTCGGGCGGAGTCACCTAGTGCAG | 5410 fluorescence intensity (a.u.) |
| TAATCTTTTACTGACACATGTAATACAGGTAGTTAGTTTCCGGAGTCACCTAGTGCAG | 3270 fluorescence intensity (a.u.) |
| GAGCACAAGTTCTCACCAACTTGACTCATTGTTAAGAAGCCGGAGTCACCTAGTGCAG | 4350 fluorescence intensity (a.u.) |
| AAGTTGCACAACCATAACAAGAAAATGTGATGCTATCTGACGGAGTCACCTAGTGCAG | 7340 fluorescence intensity (a.u.) |
| ACTCAGGAACAAGACGTGTCAGATTAGTCGAGGCTGTTCCCGGAGTCACCTAGTGCAG | 3260 fluorescence intensity (a.u.) |
| CGCTCCGGCCGCCGCCGCCGCCGCCGTCGCGTGGGAGGGGCGGAGTCACCTAGTGCAG | 7030 fluorescence intensity (a.u.) |
| TCTATTGTATTAAACCGGTATGGTCCTAAACCGCTAAACCCGGAGTCACCTAGTGCAG | 18800 fluorescence intensity (a.u.) |
| ACTCCCTCGCCTCACCACGCTCCCCTGCGTCAGGTCTTCCCGGAGTCACCTAGTGCAG | 3790 fluorescence intensity (a.u.) |
| TACTTGAGCGACGCGAGTCACCGAAACCGCCATGTAGGTTCGGAGTCACCTAGTGCAG | 3380 fluorescence intensity (a.u.) |
| GCTGGCTTCCAGTTGGGTGGTGAACCCAGACGGCTGCATTCGGAGTCACCTAGTGCAG | 26300 fluorescence intensity (a.u.) |
| CGTGCAGGCGCTGATACTACTGGTGAATCGGAAGGTGACGCGGAGTCACCTAGTGCAG | 3770 fluorescence intensity (a.u.) |
| ATTGATTGTGTACGTTTTGCCCTTAATCCTTGTCAGCAGTCGGAGTCACCTAGTGCAG | 7110 fluorescence intensity (a.u.) |
| GTATTGATGTTAATGAATCTAGATAGATATATATGTCTAACGGAGTCACCTAGTGCAG | 26800 fluorescence intensity (a.u.) |
| CGACGCGTGGCCTCGACGTGGCAGTGCCGAACCAAAGCTTCGGAGTCACCTAGTGCAG | 5910 fluorescence intensity (a.u.) |
| TTAACCTCGTGTGCATGCGTGTTTTGATTTCTCGCGGTTTCGGAGTCACCTAGTGCAG | 6630 fluorescence intensity (a.u.) |
| CCATTGAATTTTACGGCCGGGTCGGAAGAAATATATATAACGGAGTCACCTAGTGCAG | 32200 fluorescence intensity (a.u.) |
| AGCGCCACAGTGTACTGAGTCACCGCCATGTGGGTCCCACCGGAGTCACCTAGTGCAG | 10600 fluorescence intensity (a.u.) |
| CCTTCGCCAATTGGGCGCTAATCAGGCGGGTATTTTGGATCGGAGTCACCTAGTGCAG | 3410 fluorescence intensity (a.u.) |

Source: paper PMC7819943, “Rice protein-binding microarrays: a tool to detect cis-acting elements near promoter regions in rice”
